In paper PMC3471852:
Where a chain is given by its changes, count along the chain named. No constants are given. Whether binding was seen depends on the method and setting. In cells and extracts the contact can be indirect. Some entries that bind do so weakly or less than the wild type. Tags and fused reporters may be left off the sequences shown.

Legend:
Assay in all cases: co-IP; HEK293 cells co-expressing HA-tagged receptor and Flag-β-arrestin-2, buffer or C3a (100 nM, 37°C, 5 min), chemical cross-linking with disuccinimidyl suberate (0.1 mM, room temperature, 30 min), lysates on anti-HA agarose overnight at 4°C, blot with anti-Flag antibody, densitometry
[1] = molecular target: T1, HA-tagged C3aR mutant MT1 (Ser475/479, Thr480/481 to Ala) (human) (UniProt Q16581)
T1 sequence: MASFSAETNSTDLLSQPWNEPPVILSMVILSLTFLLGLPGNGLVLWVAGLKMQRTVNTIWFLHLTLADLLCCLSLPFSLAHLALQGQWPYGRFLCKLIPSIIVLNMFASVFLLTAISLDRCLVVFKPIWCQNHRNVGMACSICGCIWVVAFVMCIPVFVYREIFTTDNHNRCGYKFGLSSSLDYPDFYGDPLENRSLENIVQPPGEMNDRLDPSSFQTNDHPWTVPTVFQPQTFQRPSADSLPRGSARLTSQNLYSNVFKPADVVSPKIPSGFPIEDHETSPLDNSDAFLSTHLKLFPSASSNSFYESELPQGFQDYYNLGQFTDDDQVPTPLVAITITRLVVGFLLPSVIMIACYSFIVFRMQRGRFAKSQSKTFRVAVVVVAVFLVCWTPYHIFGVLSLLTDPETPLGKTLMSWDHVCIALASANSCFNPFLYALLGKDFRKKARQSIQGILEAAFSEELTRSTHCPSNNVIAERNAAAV

[2] = molecular target: T2, HA-tagged C3aR mutant MT7 (Ser459 plus the residues of MT1 and MT2 to Ala) (human) (UniProt Q16581)
T2 sequence: T1 sequence with S459A, T463A, S465A, T466A, S470A

[3] = molecular target: T3, HA-tagged wild-type C3a receptor (human) (UniProt Q16581)
T3 sequence: T1 sequence with A475S, A479S, A480T, A481T

- binding [1]: binds
- binding [2]: no binding
- binding [3]: binds
Substance: Flag-β-arrestin-2 (from UniProt P32121 1-409)
